The supplement of paper PMC11732987, “Enantioselective OTUD7B fragment discovery through chemoproteomics screening and high-throughput optimisation” (Communications Chemistry, 2025)
Some of the results follow. The data scatter; read single values as rough.

Chains of the proteins cited; added tags and fusions are not shown. Lines headed by an entry give the natural chain unless they say otherwise; changes in a name come on top.
UniProt P57772: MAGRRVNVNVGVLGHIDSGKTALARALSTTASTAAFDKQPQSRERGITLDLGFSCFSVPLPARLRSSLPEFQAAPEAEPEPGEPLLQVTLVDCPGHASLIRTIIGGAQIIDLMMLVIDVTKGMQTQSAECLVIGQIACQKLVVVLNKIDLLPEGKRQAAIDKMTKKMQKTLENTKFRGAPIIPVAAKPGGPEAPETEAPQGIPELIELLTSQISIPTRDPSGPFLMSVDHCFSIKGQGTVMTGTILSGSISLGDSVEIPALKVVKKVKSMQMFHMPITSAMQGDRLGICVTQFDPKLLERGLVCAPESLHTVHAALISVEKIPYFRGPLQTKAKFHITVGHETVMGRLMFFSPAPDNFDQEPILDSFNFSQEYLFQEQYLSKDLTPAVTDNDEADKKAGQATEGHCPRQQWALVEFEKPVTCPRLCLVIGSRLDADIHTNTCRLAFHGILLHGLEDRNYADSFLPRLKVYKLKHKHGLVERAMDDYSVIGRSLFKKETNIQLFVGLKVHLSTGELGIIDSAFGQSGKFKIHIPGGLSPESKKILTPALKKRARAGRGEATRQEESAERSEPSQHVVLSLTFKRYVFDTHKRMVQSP
UniProt P30084: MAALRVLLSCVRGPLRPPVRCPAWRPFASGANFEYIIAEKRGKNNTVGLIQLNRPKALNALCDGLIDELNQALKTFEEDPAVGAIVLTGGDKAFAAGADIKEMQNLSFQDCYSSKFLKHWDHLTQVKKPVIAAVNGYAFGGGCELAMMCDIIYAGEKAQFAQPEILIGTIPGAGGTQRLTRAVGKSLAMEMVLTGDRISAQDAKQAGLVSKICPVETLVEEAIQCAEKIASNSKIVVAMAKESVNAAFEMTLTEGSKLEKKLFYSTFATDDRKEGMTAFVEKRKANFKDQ
UniProt Q9NZJ0: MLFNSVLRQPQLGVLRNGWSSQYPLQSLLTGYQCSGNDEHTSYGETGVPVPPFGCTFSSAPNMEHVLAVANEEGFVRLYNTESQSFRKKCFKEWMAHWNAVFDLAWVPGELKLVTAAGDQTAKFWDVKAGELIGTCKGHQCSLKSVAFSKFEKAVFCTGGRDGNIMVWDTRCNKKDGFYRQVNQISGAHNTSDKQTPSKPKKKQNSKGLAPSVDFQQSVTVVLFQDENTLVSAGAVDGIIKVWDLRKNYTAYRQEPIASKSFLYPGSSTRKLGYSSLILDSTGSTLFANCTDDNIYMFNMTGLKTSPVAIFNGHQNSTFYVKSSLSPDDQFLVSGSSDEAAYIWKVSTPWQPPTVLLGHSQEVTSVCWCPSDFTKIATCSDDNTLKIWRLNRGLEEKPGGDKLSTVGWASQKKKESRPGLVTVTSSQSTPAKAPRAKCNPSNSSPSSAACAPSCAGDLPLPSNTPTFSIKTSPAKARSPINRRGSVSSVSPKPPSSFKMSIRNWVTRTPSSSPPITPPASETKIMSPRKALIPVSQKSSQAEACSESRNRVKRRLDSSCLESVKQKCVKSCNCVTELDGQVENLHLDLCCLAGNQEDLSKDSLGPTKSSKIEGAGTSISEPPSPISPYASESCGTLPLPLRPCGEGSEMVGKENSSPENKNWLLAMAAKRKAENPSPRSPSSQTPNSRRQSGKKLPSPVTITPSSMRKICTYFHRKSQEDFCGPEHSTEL

How the values were obtained:
[1] = compound: ClCC(=O)N[C@@H]1CCCc2ccccc12; test: log2 mean competition ratio of IA-DTB cysteine labelling (DMSO/compound) (log2 ratio); higher = stronger cysteine engagement by compound; settings: treatment time: 4 h, cell line lysate: HEK293T
Method: (§1)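 IA-DTB competitive cysteine chemoproteomics in HEK293T RIPA lysate. Lysates were treated with compound 29 or 30 at 50 or 200 µM for 4 h, then IA-DTB (500 µM, 1 h), trypsin-digested, NeutrAvidin-enriched and analysed by diaPASEF. Competition ratio = intensity DMSO / intensity compound (n=4 treated, n=64 DMSO); binding: mean log2 CR ≥ 1 and p ≤ 0.05 plus QC filters. Target is the cysteine site.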

[2] = compound: ClCC(=O)N[C@H]1CCCc2ccccc12; test: as above; settings: treatment time: 4 h, cell line lysate: HEK293T
Method: as §1

EEFSEC C406 (UniProt P57772)
log2 mean competition ratio ([1]; 50 µM): 0.000284
log2 mean competition ratio ([1]; 200 µM): 0.208
log2 mean competition ratio ([2]; 50 µM): 0.00755
log2 mean competition ratio ([2]; 200 µM): 0.128

EIF5A C73
log2 mean competition ratio ([1]; 50 µM): -0.358
log2 mean competition ratio ([1]; 200 µM): 0.264
log2 mean competition ratio ([2]; 50 µM): -0.616
log2 mean competition ratio ([2]; 200 µM): -0.02

ECHS1 C111 (UniProt P30084)
log2 mean competition ratio ([1]; 50 µM): 0.412
log2 mean competition ratio ([1]; 200 µM): 0.248
log2 mean competition ratio ([2]; 50 µM): 0.719
log2 mean competition ratio ([2]; 200 µM): -0.156

DTL C379 (UniProt Q9NZJ0)
log2 mean competition ratio ([1]; 50 µM): -0.0986
log2 mean competition ratio ([1]; 200 µM): 0.113
log2 mean competition ratio ([2]; 50 µM): -0.166
log2 mean competition ratio ([2]; 200 µM): 0.167
